Patent publication US20190247353A1, “ACNE STRAIN-SELECTIVE ANTIBACTERIAL AGENT” (MOMOTANI JUNTENKAN CO., LTD., priority 2016, published 2019)
At least one compound was matched to its structure with a doubt left.

System: HL053PA1 strain (RT4) and HL043PA1 strain (RT5) versus HL110PA3 strain (RT6)
Assay: Strain-selective antibacterial activity (average of MICRT6/MICRT4 and MICRT6/MICRT5)
Format: cell-based, Propionibacterium acnes
Conditions: control antibacterial agents, Comparative Example 1
Description: Herein, “acne strain-selective antibacterial activity” or “strain-selective antibacterial activity” means an index indicating better inhibition of growth of a dominant strain in acne patients compared to that of a dominant strain in healthy subjects. It is expressed by the average value of the values (MICRT6/MICRT4, and MICRT6/MICRTS) obtained by dividing the minimum inhibitory concentration (MIC) of an object substance with respect to the dominant strain in healthy subjects (RT6 strain) (MICRT6) respectively by the MIC of the object substance with respect to the dominant strain in acne patients (RT4 strain) (MICRT4), and by the MIC of the object substance with respect to the dominant strain in acne patients (RT5 strain) (MICRT5).
The strain-selective antibacterial activity of each test substance (Table 2, right-most column) was evaluated based on the following rating criteria (Table 3). When the strain-selective antibacterial activity is indicated by a numerical range, the rating was based on the minimum value thereof.

In the case of Cc1cc(O)ccc1C(C)C [reference compound], the Rating is reported as “− (Not more than 1)”.
